Here are results for two molecules from publication doi:10.1101/2022.09.13.507797 (bioRxiv, 2022).

Experiment [1] concerns the target quail factor H (quail (Coturnix japonica)). Description: ELISA. On the technique in general: ELISA stands for enzyme-linked immunosorbent assay.
Experiment [2] shares this target. Kind of experiment: SPR.

No constants are given. Whether binding was seen depends on the method and setting. Binding calls can cover weak binding; strength is not graded here. Where a sequence is shown, tags or fusion partners need not be part of it.

B1: histidine-tagged CspZB31 (natural protein, Borrelia burgdorferi strain B31)
chain: RLNQRNINELKIFVEKAKYYSIKLDAIYNECTGAYNDIMTYSEGTFSDQSKVNQAISIFKKDNKIVNKFKELEKIIEEYKPMFLSKLIDDFAIELDQAVDNDVSNARHVADSYKKLRKSVVLAYIESFDVISSKFVDSKFVEASKKFVNKAKEFVEENDLIALECIVKTIGDMVNDREINSRSRYNNFYKKEADFLGAAVELEGAYKAIKQTLL
In the case of B1, the binding entry in experiment [1] is reported as “binds”.

B2: CspZ from B. burgdorferi B31 (CspZB31), untagged recombinant protein (natural protein, Borrelia burgdorferi strain B31)
chain: B1 chain
On to B2, for which, in experiment [2], the binding entry was “binds”.
